# At least one structure is not confirmed: it was looked up by name or label, or the drawing left a doubt.
# How the values were obtained:
# [1] = test system: cultured malignant CTCL cells; details: photoactivated with either UV-A or white light; cited from earlier work
# MF lesions = experiment: Phase II study, topical hypericin and visible light, MF arm; type: in vivo, human
# Procedure: This study is designed to evaluate the safety and efficacy of topical hypericin in concentrations of 0.1% and 0.25% under occlusion for 24 hours followed by administration of visible light in doses ranging from 8 to 20 J/cm^2 twice weekly for 6 weeks for the treatment of psoriasis or MF. One of the four centers involved in the study administered topical hypericin in concentrations of 0.05 and 0.1%. The concentration of hypericin and the dose of light were based upon the Phase I study described above with normal volunteers.
# A standardized topical amount of hypericin in either ointment or liquid formula was applied to defined plaques on the skin of volunteer subjects. The amount of hypericin in each topical application was as follows: 0.05%=0.005 mg/cm^2; 0.1%=0.01 mg/ cm^2, and 0.25%=0.025 mg/ cm^2.
# Each hypericin treatment or placebo was applied twice weekly for a period of 24 hours prior to irradiation. Each application site was covered by non-absorbing Webril cotton of equal area and occluded with occlusive tape (Blenderm, 3M); excess drug was removed prior to irradiation (24 hours post drug application). […]
# Skin reactions were evaluated each week immediately after irradiation and again at 48 and 72 hours later. The sites of irradiation were examined twice per week thereafter and all changes; e.g., erythema, edema, desquamation, pigmentation, etc, were recorded.
# Lesion responses in this study were scored in accordance with the following scales at each patient evaluation:lesional CR=complete regression of the treated lesion; PR=>50% decrease in lesional area during treatment; Stable=<50% decrease in size or <25% increase in size during therapy; Progression=>25% increase in size during therapy. […] If so, the patient was scored as a responder for that lesion. […]
# The response or lack of response, of each lesion treated with either placebo ointment or with a hypericin-containing ointment was analyzed as a binomial (i.e., yes/no) distribution. […]
# HIV = details: 1~20 μg, light activation 15-30 minutes; cited from earlier work
smiles,measurement,setting,value
"Cc1cc(O)c2c(=O)c3c(O)cc(O)c4c5c(O)cc(O)c6c(=O)c7c(O)cc(C)c8c1c2c(c34)c(c78)c65 [Hypericin, 4,5,7,4′,5′,7′ -dimethyl-meso naphthodiantbrone]",apoptosis of cultured malignant CTCL cells,[1],94%
same,"Responders/Total, Hypericin 0.1% Dose (MF)","MF lesions; ointment 0.1%, 6 weeks",5 of 12
same,"Responders/Total, Hypericin 0.25% Dose (MF)","MF lesions; ointment 0.25%, 6 weeks",5 of 9
same,Overall efficacy against MF lesions (in words),"MF lesions; topical 0.1% to 0.25% twice weekly, white light 24 hours later at 8-20 J/cm^2",effective against MF lesions
same,"infectious titers inactivated, HIV",HIV,5-6 log10

# From patent US20130211371A1, “FORMULATIONS AND METHODS OF TREATMENT OF SKIN CONDITIONS” (Hy Biopharma, Inc., priority 2010, published 2013)
